Measured values: paper doi:10.1101/321885
No constants are given. Whether binding was seen depends on the method and setting. Binding seen in cells or lysates may run through a third protein. Some binding calls cover weakened binding; strength is not graded here.

Protein sequences, listed by entry. Tags and fused reporters are not part of them.
UniProt Q91YD9: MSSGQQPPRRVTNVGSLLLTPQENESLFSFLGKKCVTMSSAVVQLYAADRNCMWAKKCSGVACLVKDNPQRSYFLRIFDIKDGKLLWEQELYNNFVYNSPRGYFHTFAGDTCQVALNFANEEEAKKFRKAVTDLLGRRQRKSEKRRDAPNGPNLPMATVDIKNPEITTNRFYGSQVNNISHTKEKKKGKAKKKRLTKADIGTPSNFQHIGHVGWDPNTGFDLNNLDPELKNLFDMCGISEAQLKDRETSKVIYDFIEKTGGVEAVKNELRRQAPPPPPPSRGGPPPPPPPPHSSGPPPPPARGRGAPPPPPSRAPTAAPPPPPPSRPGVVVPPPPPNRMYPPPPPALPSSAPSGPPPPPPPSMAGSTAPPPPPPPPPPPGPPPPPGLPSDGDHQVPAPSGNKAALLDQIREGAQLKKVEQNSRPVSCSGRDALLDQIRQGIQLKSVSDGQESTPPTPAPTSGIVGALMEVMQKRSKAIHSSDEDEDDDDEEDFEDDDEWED

Target: T1, Dynamin 2 (mouse (endogenous in primary myotubes)) (UniProt P39054)
T1 sequence: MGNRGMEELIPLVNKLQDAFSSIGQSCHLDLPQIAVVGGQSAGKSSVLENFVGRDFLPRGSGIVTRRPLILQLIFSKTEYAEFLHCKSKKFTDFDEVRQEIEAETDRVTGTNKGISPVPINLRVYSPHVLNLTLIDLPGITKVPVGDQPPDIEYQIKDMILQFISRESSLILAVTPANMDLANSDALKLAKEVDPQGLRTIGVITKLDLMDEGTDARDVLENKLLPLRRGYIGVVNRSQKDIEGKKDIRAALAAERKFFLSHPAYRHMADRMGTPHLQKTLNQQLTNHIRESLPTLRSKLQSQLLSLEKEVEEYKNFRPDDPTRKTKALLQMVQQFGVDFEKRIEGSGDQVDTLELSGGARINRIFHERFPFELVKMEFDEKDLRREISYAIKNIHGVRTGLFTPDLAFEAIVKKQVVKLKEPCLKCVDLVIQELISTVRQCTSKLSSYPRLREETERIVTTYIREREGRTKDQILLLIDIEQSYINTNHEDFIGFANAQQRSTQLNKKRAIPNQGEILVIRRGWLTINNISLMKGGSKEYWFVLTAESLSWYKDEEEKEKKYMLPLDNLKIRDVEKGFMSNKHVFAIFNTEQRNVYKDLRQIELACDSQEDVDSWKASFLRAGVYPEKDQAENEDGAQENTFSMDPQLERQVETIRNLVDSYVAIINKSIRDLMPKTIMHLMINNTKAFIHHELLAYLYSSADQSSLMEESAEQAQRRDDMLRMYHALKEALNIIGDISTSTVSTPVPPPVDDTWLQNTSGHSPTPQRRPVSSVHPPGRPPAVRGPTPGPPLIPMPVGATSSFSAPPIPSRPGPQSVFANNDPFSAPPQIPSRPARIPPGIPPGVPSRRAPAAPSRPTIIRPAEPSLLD
Experiment: co-IP

binding: binds
Substance: Neuronal Wiskott-Aldrich Syndrome protein (from UniProt Q91YD9 1-501)
